Measurements from PMC7819943, “Rice protein-binding microarrays: a tool to detect cis-acting elements near promoter regions in rice”.
This is one part of the list.

Target: T1, OsSMF1 (Oryza sativa, UniProt Q6ZLB0 1-436)
T1 sequence: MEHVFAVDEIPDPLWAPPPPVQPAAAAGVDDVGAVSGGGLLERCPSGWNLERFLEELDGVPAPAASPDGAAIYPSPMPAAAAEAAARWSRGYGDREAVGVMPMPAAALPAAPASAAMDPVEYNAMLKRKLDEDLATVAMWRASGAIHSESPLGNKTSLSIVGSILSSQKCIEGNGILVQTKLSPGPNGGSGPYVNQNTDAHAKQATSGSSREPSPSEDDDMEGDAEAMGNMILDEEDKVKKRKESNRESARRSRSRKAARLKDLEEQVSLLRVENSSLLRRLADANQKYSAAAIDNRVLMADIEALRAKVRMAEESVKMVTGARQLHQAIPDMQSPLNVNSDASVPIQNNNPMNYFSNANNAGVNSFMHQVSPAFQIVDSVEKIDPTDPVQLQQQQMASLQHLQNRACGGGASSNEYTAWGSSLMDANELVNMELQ
Test: protein-binding microarray (RPBM); PBS, 2% BSA, 51.3 ng/ul salmon testes DNA, 50 uM zinc acetate, 200 nM TF, 25 C, 1 h; high values mean tight binding
Settings: protein: recombinant; tags: N-terminal polyhistidine and DsRed monomer fusion (pET32a); chain copies: 2; label: CyDye5-dUTP incorporated in the synthesized complementary strand; 3' TTTTT single-stranded linker to array surface; dsDNA, one strand shown
How it was run: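 Transcription factors, each fused N-terminally to a polyhistidine tag and DsRed, were expressed in E. coli BL21-CodonPlus and purified on Ni–NTA. A custom Agilent array was made double-stranded by primer extension with Cy5-dUTP and blocked with 2% BSA. It was incubated with 200 nM protein in PBS, 2% BSA, salmon testes DNA and 50 µM zinc acetate at 25 °C for 1 h, then washed. The binding signal is per-feature fluorescence intensity (arbitrary units) read on an Axon 4000B scanner.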

Row | Sequence | binding signal
1 | CTAGCTGTTGAGAATTTGTCCGATGTGTCTCCCTTGTTCCCGGAGTCACCTAGTGCAG | 4700 fluorescence intensity (a.u.)
2 | GGGCAGCAAATTAAGTGCCGGCAATAAACTAATATAGCAGCGGAGTCACCTAGTGCAG | 16400 fluorescence intensity (a.u.)
3 | GTTGGTGGCGAGCGCGCGGCGGCCACGCACGTACGTGGCCCGGAGTCACCTAGTGCAG | 4880 fluorescence intensity (a.u.)
4 | CTCTCCTCCATCCATGACGTCAGTTTGGCCACACCCAATGCGGAGTCACCTAGTGCAG | 7680 fluorescence intensity (a.u.)
5 | TAATGGCATCGTCCCTAGTAGGCTAGTACTATACATTGTGCGGAGTCACCTAGTGCAG | 3280 fluorescence intensity (a.u.)
6 | AGCTCCAGCTCCACGCTGTGCCAAACAAGCCCTTAGCTTACGGAGTCACCTAGTGCAG | 3390 fluorescence intensity (a.u.)
7 | CATGATGTATGACCTTGTTACATCAGTATCTGTGGTATGGCGGAGTCACCTAGTGCAG | 4020 fluorescence intensity (a.u.)
8 | ATGGTGCCCGTGGCCGTGGTGTACGCAACTTGTCCGCAGCCGGAGTCACCTAGTGCAG | 3260 fluorescence intensity (a.u.)
9 | TCTCGCCGCCATTGTCACGTCTCACGTGCGCGCCACCACCCGGAGTCACCTAGTGCAG | 3330 fluorescence intensity (a.u.)
10 | AGGCAGCAATGGCGCCTCCTCCGAACACGTACTCGGAGTCCGGAGTCACCTAGTGCAG | 4390 fluorescence intensity (a.u.)
11 | CCCCACAGCACGTCACGTCACGCTCACGCCGTCAGCCCTGCGGAGTCACCTAGTGCAG | 12000 fluorescence intensity (a.u.)
12 | TCCTGTTACAATCATCTGACTCTCTGTGATTGAAACCTTGCGGAGTCACCTAGTGCAG | 4180 fluorescence intensity (a.u.)
13 | GGTTGATTGATCCGCCACGCAAGCTTTGCTACCTAACCATCGGAGTCACCTAGTGCAG | 9840 fluorescence intensity (a.u.)
14 | ATATAATGTTTTCAATAATGTTGTTTTCAAATGAAACAAGCGGAGTCACCTAGTGCAG | 23600 fluorescence intensity (a.u.)
15 | ACTTCCCACGTGTCACCCTGACGTGCACTGCTGGCAGCTGCGGAGTCACCTAGTGCAG | 30100 fluorescence intensity (a.u.)
16 | TAGTGATGGCCTCCTCTAGCTCGTGCGTCACTGATCTCCACGGAGTCACCTAGTGCAG | 7120 fluorescence intensity (a.u.)
17 | AGGTTGGTGATTCAGAGATGTCGAGACGTGTGTTCTTTTGCGGAGTCACCTAGTGCAG | 4270 fluorescence intensity (a.u.)
18 | TCAAAGCTTGAGCCACAGAAAATGCCACGGTGGATTGGATCGGAGTCACCTAGTGCAG | 35400 fluorescence intensity (a.u.)
19 | AAAGGAGAAGAAGGAAATATCATGATTCATGAACCCAACCCGGAGTCACCTAGTGCAG | 3160 fluorescence intensity (a.u.)
20 | GTACTGACGTACTCCACTGAGTAGTGCGTAATTGCGTATGCGGAGTCACCTAGTGCAG | 5980 fluorescence intensity (a.u.)
21 | TTCCTGTCATCATGATGCACGCGTGCATTGCTATTTACTACGGAGTCACCTAGTGCAG | 4280 fluorescence intensity (a.u.)

Part of the list above, as tab-separated lines.
Row	Sequence	binding signal
9	TCTCGCCGCCATTGTCACGTCTCACGTGCGCGCCACCACCCGGAGTCACCTAGTGCAG	3330 fluorescence intensity (a.u.)
10	AGGCAGCAATGGCGCCTCCTCCGAACACGTACTCGGAGTCCGGAGTCACCTAGTGCAG	4390 fluorescence intensity (a.u.)
11	CCCCACAGCACGTCACGTCACGCTCACGCCGTCAGCCCTGCGGAGTCACCTAGTGCAG	12000 fluorescence intensity (a.u.)

Later entries

Row | Sequence | binding signal
22 | GGCTTAAGTCAAGCTAATTTTAGATATTTATTATTTTGTGCGGAGTCACCTAGTGCAG | 3900 fluorescence intensity (a.u.)
23 | CACCTGCTTAGGGGATGTTTGGATCAAGAACCACATCGGACGGAGTCACCTAGTGCAG | 3380 fluorescence intensity (a.u.)
24 | ACATGAACTCTATCTGCAATATCTGTTCAGTGTTTCAGTGCGGAGTCACCTAGTGCAG | 3670 fluorescence intensity (a.u.)
25 | AACCACCAACTTACTACTAGTACGCTGATGTATTGATGTACGGAGTCACCTAGTGCAG | 4660 fluorescence intensity (a.u.)
26 | TGGTATTCTTACTTGTGAAGCTGGTTGTGTGTTGGAGAATCGGAGTCACCTAGTGCAG | 3140 fluorescence intensity (a.u.)
27 | TAAGTTAGATGACAGACATGTAATCTCGGCGTGGAAATCTCGGAGTCACCTAGTGCAG | 3150 fluorescence intensity (a.u.)
28 | GAACTATTTAATTGACTCTGCATGCCAGGTGTTGGGCCTCCGGAGTCACCTAGTGCAG | 3190 fluorescence intensity (a.u.)
29 | TGATGCAATTCTGTTCCTGTCATTGTCACTCCCCTGCAAACGGAGTCACCTAGTGCAG | 4720 fluorescence intensity (a.u.)
30 | CGTTTGAATTTTCTAACGAGCCGAGCTGGCATTTTAGCTCCGGAGTCACCTAGTGCAG | 5800 fluorescence intensity (a.u.)
31 | ATAATGTGACGCTGCCATACACCGCCTCCCTTCGCTTTTGCGGAGTCACCTAGTGCAG | 4250 fluorescence intensity (a.u.)
32 | ACCAACCAACCAACCAACCAACCAAGCCTCCCAACTCCATCGGAGTCACCTAGTGCAG | 3810 fluorescence intensity (a.u.)
33 | CGAACTTCGAACGGCGTGAAACCATACGTCATACCTATTTCGGAGTCACCTAGTGCAG | 6370 fluorescence intensity (a.u.)
34 | ACACAACTAATCCACACAAGGAGCATGACTGTTACCGACCCGGAGTCACCTAGTGCAG | 3640 fluorescence intensity (a.u.)
35 | ACGACATCAACTTCGCGTCGCGGCCGTGGCCGCCGACTGTCGGAGTCACCTAGTGCAG | 3400 fluorescence intensity (a.u.)
36 | CATATACTGCATACGTCAAGTCAGAGGAACGTGGTGGCTGCGGAGTCACCTAGTGCAG | 5590 fluorescence intensity (a.u.)
37 | ATAGAATCTTGCTATACGTATGACCGAGCCATTCGACTCACGGAGTCACCTAGTGCAG | 3880 fluorescence intensity (a.u.)
38 | AAGAAGGAAATGATGCGCGCGCACAACGTGGCCACCTCCTCGGAGTCACCTAGTGCAG | 4910 fluorescence intensity (a.u.)
39 | GGTTGCGAAGGAAAAGGGATGGCGATTGATTTGCGCGTGGCGGAGTCACCTAGTGCAG | 3150 fluorescence intensity (a.u.)
40 | CCGAAAGTACTTATAAAGAGACATGTTCCTCAAACAAGGCCGGAGTCACCTAGTGCAG | 26000 fluorescence intensity (a.u.)
41 | CGTCTCCAAGCTCCGGACCCAGCTGGGCGTCATCCACCCGCGGAGTCACCTAGTGCAG | 3330 fluorescence intensity (a.u.)
42 | AATATCACACTGCCCGCGCCCCTGTTCGCAGCGCATGTGACGGAGTCACCTAGTGCAG | 3160 fluorescence intensity (a.u.)
